Results on two molecules are retold here after doi:10.1101/2021.06.21.449265 (bioRxiv, 2021).

One test addresses T1, Fy-2 CΔ53 (human) (UniProt Q6ZMI0).
T1 sequence: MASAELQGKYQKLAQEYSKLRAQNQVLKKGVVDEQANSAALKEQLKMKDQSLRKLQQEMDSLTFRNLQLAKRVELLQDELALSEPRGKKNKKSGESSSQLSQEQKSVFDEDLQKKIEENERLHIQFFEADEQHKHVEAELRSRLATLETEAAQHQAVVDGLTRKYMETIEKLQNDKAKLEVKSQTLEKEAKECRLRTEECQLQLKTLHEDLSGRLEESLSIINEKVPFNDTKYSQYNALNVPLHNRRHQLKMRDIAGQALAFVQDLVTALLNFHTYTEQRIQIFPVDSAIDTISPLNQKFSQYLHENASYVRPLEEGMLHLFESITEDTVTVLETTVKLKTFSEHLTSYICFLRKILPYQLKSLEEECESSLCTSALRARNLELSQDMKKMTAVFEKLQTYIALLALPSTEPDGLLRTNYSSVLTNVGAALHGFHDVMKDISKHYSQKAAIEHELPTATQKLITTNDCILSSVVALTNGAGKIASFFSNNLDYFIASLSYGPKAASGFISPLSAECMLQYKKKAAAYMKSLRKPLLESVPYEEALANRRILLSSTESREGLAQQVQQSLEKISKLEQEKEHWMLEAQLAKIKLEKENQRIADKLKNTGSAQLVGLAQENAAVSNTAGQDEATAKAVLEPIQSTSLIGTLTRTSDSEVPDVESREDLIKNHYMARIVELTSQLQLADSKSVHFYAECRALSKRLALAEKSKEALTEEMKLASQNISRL
In words: reconstitution and co-purification.

The next test concerns the target T2, Fy-2 CΔ84 (human) (UniProt Q6ZMI0).
T2 sequence: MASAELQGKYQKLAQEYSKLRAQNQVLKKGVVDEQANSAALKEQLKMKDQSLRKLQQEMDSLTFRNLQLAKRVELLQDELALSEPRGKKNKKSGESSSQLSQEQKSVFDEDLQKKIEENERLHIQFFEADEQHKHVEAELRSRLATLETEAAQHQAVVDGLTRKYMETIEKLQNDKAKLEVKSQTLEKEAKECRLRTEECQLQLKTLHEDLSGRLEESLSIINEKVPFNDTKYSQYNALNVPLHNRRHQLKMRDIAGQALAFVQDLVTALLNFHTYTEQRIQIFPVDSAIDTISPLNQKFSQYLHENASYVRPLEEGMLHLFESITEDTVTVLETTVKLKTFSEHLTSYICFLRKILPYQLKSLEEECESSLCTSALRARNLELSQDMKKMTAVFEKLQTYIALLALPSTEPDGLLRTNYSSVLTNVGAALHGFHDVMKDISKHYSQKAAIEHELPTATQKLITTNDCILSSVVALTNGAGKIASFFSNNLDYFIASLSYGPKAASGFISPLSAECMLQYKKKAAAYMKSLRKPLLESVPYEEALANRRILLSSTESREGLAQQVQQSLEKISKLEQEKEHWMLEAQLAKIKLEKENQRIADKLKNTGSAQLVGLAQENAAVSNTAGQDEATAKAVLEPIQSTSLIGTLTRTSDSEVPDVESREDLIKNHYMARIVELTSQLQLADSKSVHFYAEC
Nature of the test: reconstitution and co-purification.

Results are given in words; binding and its absence hold for the method and conditions named. Some entries that bind do so weakly or less than the wild type.

B1: Fy-4 (Cryzl1) (natural protein, human, UniProt O95825 1-349, looked up)
chain: MKGLYFQQSSTDEEITFVFQEKEDLPVTEDNFVKLQVKACALSQINTKLLAEMKMKKDLFPVGREIAGIVLDVGSKVSFFQPDDEVVGILPLDSEDPGLCEVVRVHEHYLVHKPEKVTWTEAAGSIRDGVRAYTALHYLSHLSPGKSVLIMDGASAFGTIAIQLAHHRGAKVISTACSLEDKQCLERFRPPIARVIDVSNGKVHVAESCLEETGGLGVDIVLDAGVRLYSKDDEPAVKLQLLPHKHDIITLLGVGGHWVTTEENLQLDPPDSHCLFLKGATLAFLNDEVWNLSNVQQGKYLCILKDVMEKLSTGVFRPQLDEPIPLYEAKVSMEAVQKNQGRKKQVVQF
Consider B1, for which the binding result with Fy-2 CΔ53 (human) and in the test with Fy-2 CΔ84 (human) was “binds” in each case.

B2: Fy-3 (C12orf4) (natural protein, human, UniProt Q9NQ89 1-552, looked up)
chain: MKKNRERFCNREREFVYKFKVGSQCLELRVPLKFPVQENASHLHGRLMLLHSLPCFIEKDLKEALTQFIEEESLSDYDRDAEASLAAVKSGEVDLHQLASTWAKAYAETTLEHARPEEPSWDEDFADVYHDLIHSPASETLLNLEHNYFVSISELIGERDVELKKLRERQGIEMEKVMQELGKSLTDQDVNSLAAQHFESQQDLENKWSNELKQSTAIQKQEYQEWVIKLHQDLKNPNNSSLSEEIKVQPSQFRESVEAIGRIYEEQRKLEESFTIHLGAQLKTMHNLRLLRADMLDFCKHKRNHRSGVKLHRLQTALSLYSTSLCGLVLLVDNRINSYSGIKRDFATVCQECTDFHFPRIEEQLEVVQQVVLYARTQRRSKLKESLDSGNQNGGNDDKTKNAERNYLNVLPGEFYITRHSNLSEIHVAFHLCVDDHVKSGNITARDPAIMGLRNILKVCCTHDITTISIPLLLVHDMSEEMTIPWCLRRAELVFKCVKGFMMEMASWDGGISRTVQFLVPQSISEEMFYQLSNMLPQIFRVSSTLTLTSKH
With B2, the binding entry was “binds” with Fy-2 CΔ53 (human) and “no binding” with Fy-2 CΔ84 (human).
